Source: publication PMC12095580, “Wnt signalosome assembly is governed by conformational flexibility of Axin and by the AP2 clathrin adaptor” (Nature Communications, 2025)
These are yes or no findings as the source states them, for the method shown. In cells and extracts the contact can be indirect. These calls come from enrichment with a bait or labelling near it, and not all partners need be listed.

Sequences of proteins named here, by UniProt entry; tags and fusion partners are left off. Residues count along the entry.
UniProt O75581, residues 20-1613: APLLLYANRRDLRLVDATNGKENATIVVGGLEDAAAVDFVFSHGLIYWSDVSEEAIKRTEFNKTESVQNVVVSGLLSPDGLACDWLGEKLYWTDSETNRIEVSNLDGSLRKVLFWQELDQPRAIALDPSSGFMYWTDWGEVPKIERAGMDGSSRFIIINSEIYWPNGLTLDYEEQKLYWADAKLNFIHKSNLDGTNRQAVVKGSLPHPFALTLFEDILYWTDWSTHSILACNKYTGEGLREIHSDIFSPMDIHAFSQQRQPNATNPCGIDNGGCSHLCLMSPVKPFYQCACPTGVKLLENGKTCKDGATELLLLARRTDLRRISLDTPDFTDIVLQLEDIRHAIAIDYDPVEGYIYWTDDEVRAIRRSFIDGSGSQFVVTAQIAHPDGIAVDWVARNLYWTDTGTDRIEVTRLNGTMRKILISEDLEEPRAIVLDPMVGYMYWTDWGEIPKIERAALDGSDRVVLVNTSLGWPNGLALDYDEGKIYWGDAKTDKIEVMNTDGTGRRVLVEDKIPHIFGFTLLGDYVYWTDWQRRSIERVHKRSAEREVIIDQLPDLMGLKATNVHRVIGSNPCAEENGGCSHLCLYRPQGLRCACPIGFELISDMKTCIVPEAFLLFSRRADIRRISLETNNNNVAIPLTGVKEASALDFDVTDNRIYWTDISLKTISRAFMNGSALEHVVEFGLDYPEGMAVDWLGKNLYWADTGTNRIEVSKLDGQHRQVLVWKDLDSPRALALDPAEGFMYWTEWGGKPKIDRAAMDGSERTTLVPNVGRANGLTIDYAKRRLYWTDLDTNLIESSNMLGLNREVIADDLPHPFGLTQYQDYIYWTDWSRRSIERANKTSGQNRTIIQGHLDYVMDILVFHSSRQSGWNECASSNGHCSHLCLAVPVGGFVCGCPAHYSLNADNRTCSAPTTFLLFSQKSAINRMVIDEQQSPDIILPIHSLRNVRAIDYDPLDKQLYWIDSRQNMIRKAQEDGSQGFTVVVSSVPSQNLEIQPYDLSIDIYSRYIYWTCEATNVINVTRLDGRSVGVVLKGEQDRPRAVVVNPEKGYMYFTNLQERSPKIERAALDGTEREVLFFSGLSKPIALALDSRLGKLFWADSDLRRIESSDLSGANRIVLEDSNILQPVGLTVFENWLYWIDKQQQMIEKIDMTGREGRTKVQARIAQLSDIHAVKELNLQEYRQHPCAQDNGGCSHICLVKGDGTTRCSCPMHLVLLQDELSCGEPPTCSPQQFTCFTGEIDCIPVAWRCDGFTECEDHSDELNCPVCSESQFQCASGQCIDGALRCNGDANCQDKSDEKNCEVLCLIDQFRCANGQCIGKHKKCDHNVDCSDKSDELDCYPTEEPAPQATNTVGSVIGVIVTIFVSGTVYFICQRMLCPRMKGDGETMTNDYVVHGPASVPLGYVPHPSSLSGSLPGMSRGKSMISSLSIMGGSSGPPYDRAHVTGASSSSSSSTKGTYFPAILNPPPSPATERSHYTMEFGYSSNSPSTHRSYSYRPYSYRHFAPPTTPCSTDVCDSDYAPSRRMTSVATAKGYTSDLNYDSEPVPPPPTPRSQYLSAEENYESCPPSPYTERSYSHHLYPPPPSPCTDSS
UniProt O94921: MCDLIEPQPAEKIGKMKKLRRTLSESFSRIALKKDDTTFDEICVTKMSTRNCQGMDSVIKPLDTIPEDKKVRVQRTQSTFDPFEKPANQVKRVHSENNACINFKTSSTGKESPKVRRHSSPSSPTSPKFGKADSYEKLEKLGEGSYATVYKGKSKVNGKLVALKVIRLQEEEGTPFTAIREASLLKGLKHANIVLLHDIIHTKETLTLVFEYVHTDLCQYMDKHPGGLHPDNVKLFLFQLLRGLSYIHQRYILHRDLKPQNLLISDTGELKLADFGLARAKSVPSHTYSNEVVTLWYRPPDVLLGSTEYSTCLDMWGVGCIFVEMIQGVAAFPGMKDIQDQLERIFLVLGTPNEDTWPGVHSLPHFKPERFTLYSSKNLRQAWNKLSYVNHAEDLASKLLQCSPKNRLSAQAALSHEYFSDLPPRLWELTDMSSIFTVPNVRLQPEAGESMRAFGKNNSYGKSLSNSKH
UniProt Q9Y6M4: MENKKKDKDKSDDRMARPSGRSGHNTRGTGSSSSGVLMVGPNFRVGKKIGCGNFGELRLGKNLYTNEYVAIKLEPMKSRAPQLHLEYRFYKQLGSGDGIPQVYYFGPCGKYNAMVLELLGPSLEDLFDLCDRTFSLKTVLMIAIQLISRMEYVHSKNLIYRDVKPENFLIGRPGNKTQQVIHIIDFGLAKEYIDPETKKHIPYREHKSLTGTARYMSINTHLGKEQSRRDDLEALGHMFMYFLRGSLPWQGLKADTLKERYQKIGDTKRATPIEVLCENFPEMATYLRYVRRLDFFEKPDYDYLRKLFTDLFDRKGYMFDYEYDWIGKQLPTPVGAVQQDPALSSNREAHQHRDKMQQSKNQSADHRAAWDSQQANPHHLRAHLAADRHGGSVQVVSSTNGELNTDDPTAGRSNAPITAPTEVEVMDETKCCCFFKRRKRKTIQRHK
UniProt Q6P5Z2: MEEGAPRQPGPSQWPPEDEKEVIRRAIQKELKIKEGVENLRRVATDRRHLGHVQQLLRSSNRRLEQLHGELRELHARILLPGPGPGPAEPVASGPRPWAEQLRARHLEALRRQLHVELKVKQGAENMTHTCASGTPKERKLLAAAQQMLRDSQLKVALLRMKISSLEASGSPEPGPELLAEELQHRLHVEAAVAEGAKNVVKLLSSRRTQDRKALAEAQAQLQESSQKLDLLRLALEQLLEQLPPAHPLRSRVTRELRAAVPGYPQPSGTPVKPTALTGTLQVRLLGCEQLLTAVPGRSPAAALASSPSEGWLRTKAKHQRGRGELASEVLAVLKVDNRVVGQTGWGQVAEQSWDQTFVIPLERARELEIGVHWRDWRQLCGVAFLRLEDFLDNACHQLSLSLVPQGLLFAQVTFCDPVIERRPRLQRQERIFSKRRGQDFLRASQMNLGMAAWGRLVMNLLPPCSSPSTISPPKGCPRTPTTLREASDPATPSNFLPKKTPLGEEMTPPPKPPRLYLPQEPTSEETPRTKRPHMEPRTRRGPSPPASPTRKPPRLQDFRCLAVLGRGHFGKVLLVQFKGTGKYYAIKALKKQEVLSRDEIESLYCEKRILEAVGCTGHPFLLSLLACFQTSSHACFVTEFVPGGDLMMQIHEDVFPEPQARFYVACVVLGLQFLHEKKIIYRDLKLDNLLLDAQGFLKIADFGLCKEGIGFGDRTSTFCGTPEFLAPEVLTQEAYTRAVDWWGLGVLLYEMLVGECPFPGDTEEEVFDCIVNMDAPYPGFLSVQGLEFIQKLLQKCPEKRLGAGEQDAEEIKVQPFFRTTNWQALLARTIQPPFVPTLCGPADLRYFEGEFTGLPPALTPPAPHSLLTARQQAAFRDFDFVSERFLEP
UniProt Q5TCX8: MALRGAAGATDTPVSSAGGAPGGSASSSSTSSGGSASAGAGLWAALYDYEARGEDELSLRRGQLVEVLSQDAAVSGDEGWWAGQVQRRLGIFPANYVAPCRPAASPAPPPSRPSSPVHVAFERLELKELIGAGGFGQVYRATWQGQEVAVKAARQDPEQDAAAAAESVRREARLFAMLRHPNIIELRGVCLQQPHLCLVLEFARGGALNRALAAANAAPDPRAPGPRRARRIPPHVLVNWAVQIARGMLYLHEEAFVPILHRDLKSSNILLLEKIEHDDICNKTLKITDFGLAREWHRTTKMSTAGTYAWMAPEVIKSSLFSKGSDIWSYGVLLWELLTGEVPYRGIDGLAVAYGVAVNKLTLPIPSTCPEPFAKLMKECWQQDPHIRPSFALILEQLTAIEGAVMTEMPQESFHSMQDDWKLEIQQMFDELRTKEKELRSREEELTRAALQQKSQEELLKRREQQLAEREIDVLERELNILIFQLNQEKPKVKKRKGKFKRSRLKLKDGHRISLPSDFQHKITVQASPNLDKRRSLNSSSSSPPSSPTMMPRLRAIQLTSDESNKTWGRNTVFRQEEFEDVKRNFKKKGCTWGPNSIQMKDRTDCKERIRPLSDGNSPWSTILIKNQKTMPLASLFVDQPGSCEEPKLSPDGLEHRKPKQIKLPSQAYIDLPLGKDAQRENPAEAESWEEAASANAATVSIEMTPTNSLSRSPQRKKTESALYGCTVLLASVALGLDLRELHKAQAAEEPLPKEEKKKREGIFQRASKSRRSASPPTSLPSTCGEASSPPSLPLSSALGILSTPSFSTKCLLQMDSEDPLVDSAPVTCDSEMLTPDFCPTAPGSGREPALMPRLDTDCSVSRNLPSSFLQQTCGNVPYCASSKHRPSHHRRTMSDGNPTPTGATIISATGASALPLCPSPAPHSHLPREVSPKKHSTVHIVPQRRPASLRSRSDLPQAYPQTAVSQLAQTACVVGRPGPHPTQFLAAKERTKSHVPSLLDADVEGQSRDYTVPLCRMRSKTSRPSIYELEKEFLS
UniProt Q96CW1: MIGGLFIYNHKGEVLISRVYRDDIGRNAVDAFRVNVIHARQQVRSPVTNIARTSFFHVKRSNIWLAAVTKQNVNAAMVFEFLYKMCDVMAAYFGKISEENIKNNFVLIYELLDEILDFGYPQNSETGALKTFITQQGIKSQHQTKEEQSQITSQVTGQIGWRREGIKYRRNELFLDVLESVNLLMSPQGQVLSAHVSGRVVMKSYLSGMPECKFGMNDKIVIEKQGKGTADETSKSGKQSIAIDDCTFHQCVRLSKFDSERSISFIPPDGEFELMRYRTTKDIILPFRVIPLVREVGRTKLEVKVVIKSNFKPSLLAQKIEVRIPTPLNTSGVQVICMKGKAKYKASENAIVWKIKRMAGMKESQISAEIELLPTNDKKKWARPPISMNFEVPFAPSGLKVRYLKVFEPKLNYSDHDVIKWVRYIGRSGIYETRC
UniProt O15169: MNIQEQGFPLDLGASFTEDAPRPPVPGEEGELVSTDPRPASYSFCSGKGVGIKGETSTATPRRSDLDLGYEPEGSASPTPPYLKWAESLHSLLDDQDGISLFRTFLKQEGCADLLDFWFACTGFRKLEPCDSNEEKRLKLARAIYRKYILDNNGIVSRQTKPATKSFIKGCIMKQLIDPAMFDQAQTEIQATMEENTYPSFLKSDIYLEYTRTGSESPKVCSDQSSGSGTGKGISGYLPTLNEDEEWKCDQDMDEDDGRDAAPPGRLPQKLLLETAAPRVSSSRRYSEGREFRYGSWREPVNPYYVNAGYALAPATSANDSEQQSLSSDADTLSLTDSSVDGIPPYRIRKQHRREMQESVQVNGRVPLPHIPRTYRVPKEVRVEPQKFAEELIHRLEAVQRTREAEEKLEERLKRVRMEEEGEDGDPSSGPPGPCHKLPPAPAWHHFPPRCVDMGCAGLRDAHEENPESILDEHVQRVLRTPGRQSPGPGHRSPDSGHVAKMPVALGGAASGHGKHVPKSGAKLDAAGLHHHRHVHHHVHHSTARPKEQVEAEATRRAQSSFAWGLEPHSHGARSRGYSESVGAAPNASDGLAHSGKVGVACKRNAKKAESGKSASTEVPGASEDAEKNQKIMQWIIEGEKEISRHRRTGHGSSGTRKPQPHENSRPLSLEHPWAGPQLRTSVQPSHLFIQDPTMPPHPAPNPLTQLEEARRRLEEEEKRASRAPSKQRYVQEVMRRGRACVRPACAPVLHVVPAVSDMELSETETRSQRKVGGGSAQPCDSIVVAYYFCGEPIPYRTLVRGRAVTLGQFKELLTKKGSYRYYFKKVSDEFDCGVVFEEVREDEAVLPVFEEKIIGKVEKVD
UniProt P49840: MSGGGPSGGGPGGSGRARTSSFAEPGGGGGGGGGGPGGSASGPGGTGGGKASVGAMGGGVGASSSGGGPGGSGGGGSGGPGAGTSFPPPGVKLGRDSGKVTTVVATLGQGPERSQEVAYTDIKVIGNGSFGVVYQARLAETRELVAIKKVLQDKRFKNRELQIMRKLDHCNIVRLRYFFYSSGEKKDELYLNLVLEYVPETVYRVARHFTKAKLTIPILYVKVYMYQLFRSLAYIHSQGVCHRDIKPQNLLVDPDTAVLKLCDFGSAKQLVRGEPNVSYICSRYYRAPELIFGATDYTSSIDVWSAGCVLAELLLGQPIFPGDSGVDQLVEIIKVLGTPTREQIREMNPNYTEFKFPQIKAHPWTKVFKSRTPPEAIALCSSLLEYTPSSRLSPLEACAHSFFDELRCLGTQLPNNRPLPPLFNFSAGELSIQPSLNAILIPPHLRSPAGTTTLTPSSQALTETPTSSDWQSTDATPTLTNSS

B1: threonine tyrosine kinase (TTK, aka MPS1) (enzyme, UniProt P33981 1-857)
chain: MESEDLSGRELTIDSIMNKVRDIKNKFKNEDLTDELSLNKISADTTDNSGTVNQIMMMANNPEDWLSLLLKLEKNSVPLSDALLNKLIGRYSQAIEALPPDKYGQNESFARIQVRFAELKAIQEPDDARDYFQMARANCKKFAFVHISFAQFELSQGNVKKSKQLLQKAVERGAVPLEMLEIALRNLNLQKKQLLSEEEKKNLSASTVLTAQESFSGSLGHLQNRNNSCDSRGQTTKARFLYGENMPPQDAEIGYRNSLRQTNKTKQSCPFGRVPVNLLNSPDCDVKTDDSVVPCFMKRQTSRSECRDLVVPGSKPSGNDSCELRNLKSVQNSHFKEPLVSDEKSSELIITDSITLKNKTESSLLAKLEETKEYQEPEVPESNQKQWQSKRKSECINQNPAASSNHWQIPELARKVNTEQKHTTFEQPVFSVSKQSPPISTSKWFDPKSICKTPSSNTLDDYMSCFRTPVVKNDFPPACQLSTPYGQPACFQQQQHQILATPLQNLQVLASSSANECISVKGRIYSILKQIGSGGSSKVFQVLNEKKQIYAIKYVNLEEADNQTLDSYRNEIAYLNKLQQHSDKIIRLYDYEITDQYIYMVMECGNIDLNSWLKKKKSIDPWERKSYWKNMLEAVHTIHQHGIVHSDLKPANFLIVDGMLKLIDFGIANQMQPDTTSVVKDSQVGTVNYMPPEAIKDMSSSRENGKSKSKISPKSDVWSLGCILYYMTYGKTPFQQIINQISKLHAIIDPNHEIEFPDIPEKDLQDVLKCCLKRDPKQRISIPELLAHPYVQIQTHPVNQMAKGTTEEMKYVLGQLVGLNSPNSILKAAKTLYEHYSGGESHNSSSSKTFEKKRGKK
B2: DDX18 (protein, UniProt Q9NVP1 1-670)
chain: MSHLPMKLLRKKIEKRNLKLRQRNLKFQGASNLTLSETQNGDVSEETMGSRKVKKSKQKPMNVGLSETQNGGMSQEAVGNIKVTKSPQKSTVLTNGEAAMQSSNSESKKKKKKKRKMVNDAEPDTKKAKTENKGKSEEESAETTKETENNVEKPDNDEDESEVPSLPLGLTGAFEDTSFASLCNLVNENTLKAIKEMGFTNMTEIQHKSIRPLLEGRDLLAAAKTGSGKTLAFLIPAVELIVKLRFMPRNGTGVLILSPTRELAMQTFGVLKELMTHHVHTYGLIMGGSNRSAEAQKLGNGINIIVATPGRLLDHMQNTPGFMYKNLQCLVIDEADRILDVGFEEELKQIIKLLPTRRQTMLFSATQTRKVEDLARISLKKEPLYVGVDDDKANATVDGLEQGYVVCPSEKRFLLLFTFLKKNRKKKLMVFFSSCMSVKYHYELLNYIDLPVLAIHGKQKQNKRTTTFFQFCNADSGTLLCTDVAARGLDIPEVDWIVQYDPPDDPKEYIHRVGRTARGLNGRGHALLILRPEELGFLRYLKQSKVPLSEFDFSWSKISDIQSQLEKLIEKNYFLHKSAQEAYKSYIRAYDSHSLKQIFNVNNLNLPQVALSFGFKVPPFVDLNVNSNEGKQKKRGGGGGFGYQKTKKVEKSKIFKHISKKSSDSRQFSH
B3: large ε subunit of AP4 (protein, UniProt Q9UPM8 1-1137)
chain: MSDIVEKTLTALPGLFLQNQPGGGPAAAKASFSSRLGSLVRGITALTSKHEEEKLIQQELSSLKATVSAPTTTLKMMKECMVRLIYCEMLGYDASFGYIHAIKLAQQGNLLEKRVGYLAVSLFLHESHELLLLLVNTVVKDLQSTNLVEVCMALTVVSQIFPCEMIPAVLPLIEDKLQHSKEIVRRKAVLALYKFHLIAPNQVQHIHIKFRKALCDRDVGVMAASLHIYLRMIKENSSGYKDLTGSFVTILKQVVGGKLPVEFNYHSVPAPWLQIQLLRILGLLGKDDQRTSELMYDVLDESLRRAELNHNVTYAILFECVHTVYSIYPKSELLEKAAKCIGKFVLSPKINLKYLGLKALTYVIQQDPTLALQHQMTIIECLDHPDPIIKRETLELLYRITNAQNITVIVQKMLEYLHQSKEEYVIVNLVGKIAELAEKYAPDNAWFIQTMNAVFSVGGDVMHPDIPNNFLRLLAEGFDDETEDQQLRLYAVQSYLTLLDMENVFYPQRFLQVMSWVLGEYSYLLDKETPEEVIAKLYKLLMNDSVSSETKAWLIAAVTKLTSQAHSSNTVERLIHEFTISLDTCMRQHAFELKHLHENVELMKSLLPVDRSCEDLVVDASLSFLDGFVAEGLSQGAAPYKPPHQRQEEKLSQEKVLNFEPYGLSFSSSGFTGRQSPAGISLGSDVSGNSAETGLKETNSLKLEGIKKLWGKEGYLPKKESKTGDESGALPVPQESIMENVDQAITKKDQSQVLTQSKEEKEKQLLASSLFVGLGSESTINLLGKADTVSHKFRRKSKVKEAKSGETTSTHNMTCSSFSSLSNVAYEDDYYSNTLHDTGDKELKKFSLTSELLDSESLTELPLVEKFSYCSLSTPSLFANNNMEIFHPPQSTAASVAKESSLASSFLEETTEYIHSNAMEVCNNETISVSSYKIWKDDCLLMVWSVTNKSGLELKSADLEIFPAENFKVTEQPGCCLPVMEAESTKSFQYSVQIEKPFTEGNLTGFISYHMMDTHSAQLEFSVNLSLLDFIRPLKISSDDFGKLWLSFANDVKQNVKMSESQAALPSALKTLQQKLRLHIIEIIGNEGLLACQLLPSIPCLLHCRVHADVLALWFRSSCSTLPDYLLYQCQKVMEGS
B4: Gadkin (protein, UniProt Q63HQ0 1-302)
chain: MGNCCWTQCFGLLRKEAGRLQRVGGGGGSKYFRTCSRGEHLTIEFENLVESDEGESPGSSHRPLTEEEIVDLRERHYDSIAEKQKDLDKKIQKELALQEEKLRLEEEALYAAQREAARAAKQRKLLEQERQRIVQQYHPSNNGEYQSSGPEDDFESCLRNMKSQYEVFRSSRLSSDATVLTPNTESSCDLMTKTKSTSGNDDSTSLDLEWEDEEGMNRMLPMRERSKTEEDILRAALKYSNKKTGSNPTSASDDSNGLEWENDFVSAEMDDNGNSEYSGFVNPVLELSDSGIRHSDTDQQTR

These molecules were tested against LRP6-TurboID (UniProt O75581) (assay: proximity labelling; TurboID: tetracycline-induced LRP6-TurboID baits in FlpIn T-REx HEK293 cells, biotin for 2 h with or without Wnt3a, streptavidin pull-down, LC-MS/MS).

binding, binds:
AAK1 (from UniProt Q2M2I8 1-961) (enzyme), CDK14 (from UniProt O94921 1-469) (enzyme), CK1γ3 (from UniProt Q9Y6M4 1-447) (enzyme), DAAM1 (from UniProt Q9Y4D1 1-1078), PKN3 (from UniProt Q6P5Z2 1-889) (enzyme), large β subunit of AP2 (from UniProt P63010 1-937), mitogen-activated kinase 4 (MLK4) (from UniProt Q5TCX8 1-1036) (enzyme), protein kinase N1 (PKN1) (from UniProt Q16512 1-942) (enzyme), μ subunit of AP2 (endogenous) (from UniProt Q96CW1 1-435), B1, B2, B3, B4

What follows are molecules tested against LRP6-BirA* (UniProt O75581) (assay: proximity labelling; BioID: tetracycline-induced LRP6-BirA* baits in FlpIn T-REx HEK293 cells, biotin for 12 h in Wnt3a-conditioned medium, streptavidin pull-down, LC-MS/MS).

binding, binds:
Axin1 (endogenous) (from UniProt O15169 1-862), GSK3α (endogenous) (from UniProt P49840 1-483) (enzyme), B1
